Percent effect of library compounds

Sequences of proteins named here, by UniProt entry; tags and fusion partners are left off. Residues count along the entry.
UniProt A4I591, 1-473: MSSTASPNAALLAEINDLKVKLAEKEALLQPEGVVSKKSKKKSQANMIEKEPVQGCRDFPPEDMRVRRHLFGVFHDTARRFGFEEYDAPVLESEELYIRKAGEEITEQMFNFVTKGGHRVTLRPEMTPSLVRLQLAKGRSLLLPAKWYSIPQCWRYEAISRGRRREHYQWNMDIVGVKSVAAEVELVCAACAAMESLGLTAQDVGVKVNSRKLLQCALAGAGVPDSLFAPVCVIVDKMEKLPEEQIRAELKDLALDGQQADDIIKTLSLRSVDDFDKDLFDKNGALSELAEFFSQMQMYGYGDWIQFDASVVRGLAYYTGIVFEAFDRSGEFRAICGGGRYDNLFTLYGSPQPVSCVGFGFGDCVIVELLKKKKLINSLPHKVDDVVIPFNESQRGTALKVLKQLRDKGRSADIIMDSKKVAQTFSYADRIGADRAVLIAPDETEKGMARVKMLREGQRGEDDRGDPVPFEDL
UniProt P9WFT3, whole entry: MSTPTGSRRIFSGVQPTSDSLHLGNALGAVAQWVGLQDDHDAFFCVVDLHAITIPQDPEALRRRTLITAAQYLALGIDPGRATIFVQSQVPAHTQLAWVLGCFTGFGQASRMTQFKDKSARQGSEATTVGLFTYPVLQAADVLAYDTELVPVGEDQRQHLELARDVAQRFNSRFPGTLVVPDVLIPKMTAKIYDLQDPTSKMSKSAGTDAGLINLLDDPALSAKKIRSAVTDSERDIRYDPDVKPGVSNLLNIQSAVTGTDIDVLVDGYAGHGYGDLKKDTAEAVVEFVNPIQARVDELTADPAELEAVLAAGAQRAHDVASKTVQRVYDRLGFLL

From ChEMBL document CHEMBL3988442, “University of Dundee, Small-Polar-MMV Screening Library” (2021).

LiHisRS: 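Enzyme assay of histidyl-tRNA synthetase; the read-out is not stated. Target: Histidine-tRNA ligase, Leishmania infantum (UniProt A4I591). Compounds at 30 µM. Direction is inferred from retests: higher values go with stronger inhibition. The assay is labelled LdHisRS but filed under L. infantum. About 69,000 compounds were tested under these conditions; 0.6% (about 410) showed 50% or more at least once.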
T. brucei: 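Whole-parasite assay of Trypanosoma brucei over 72 hours; the read-out is not stated. Concentration: 30 µM. Direction is inferred from retests: higher values go with stronger inhibition. Values scatter widely below zero; nearly all retest evidence comes from the higher of the two concentrations used. About 64,000 compounds were tested under these conditions; 1.5% (about 940) showed 50% or more at least once.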
MtTrpRS: 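Tryptophan-tRNA ligase, Mycobacterium tuberculosis (UniProt P9WFT3). Enzyme assay of tryptophanyl-tRNA synthetase; the read-out is not stated. Compounds at 10 µM. Direction is not recorded; retested compounds ran higher, which suggests that high means inhibition. About 65,000 compounds were tested under these conditions; 0.098% (about 64) showed 50% or more at least once.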

Values are the deposited “Percent Effect”, in %. The record does not define 0% and 100%; most values in the screen are far below 50% and negative numbers occur (in some assays of this library far below -100). The compounds are a random part of those screened.

{"smiles": "Cc1ncc(C(=O)N2CCC(N3C[C@@H](C)O[C@@H](C)C3)CC2)c(=O)[nH]1", "LiHisRS": 13.98, "T. brucei": -33.91, "MtTrpRS": 14.19}
{"smiles": "COc1ccc(C(=O)C2CCCN(CCCn3cccn3)C2)c(OC)c1", "stereo": "configuration not stated", "LiHisRS": 11.43, "T. brucei": -5.159, "MtTrpRS": 4.762}
{"smiles": "C=C(C)COc1cccc(C(=O)NCCCc2nnn[nH]2)c1", "LiHisRS": 1.399, "T. brucei": -5.946, "MtTrpRS": 3.759}
{"smiles": "CCNc1ncc(C)c(-c2cnn(C)c2)n1", "LiHisRS": 19.58, "T. brucei": 4.826, "MtTrpRS": 2.193}
{"smiles": "N[C@H]1CC[C@@H](Nc2nccc(CCC(F)(F)F)n2)CC1", "LiHisRS": 19.19, "T. brucei": -5.486, "MtTrpRS": 1.455}
{"smiles": "Cc1ccccc1C1(C(=O)NCCN2CCOCC2)CCOCC1", "LiHisRS": 12.04, "T. brucei": 4.63, "MtTrpRS": -3.61}
{"smiles": "CC(=O)c1cccc(NC(=O)CN2CCCC(C3OCCO3)C2)c1", "stereo": "configuration not stated", "LiHisRS": 0.8929, "T. brucei": -112.7, "MtTrpRS": -0.6353}
{"smiles": "CC1CN(C)c2ccccc2CN1C(=O)c1cscn1", "stereo": "configuration not stated", "LiHisRS": 16.13, "T. brucei": -48.34, "MtTrpRS": -3.367}
{"smiles": "O=C(O)C(F)(F)F.[H][C@@]12CCN(c3cccnc3)C[C@]1([H])CN(C(=O)c1ccccc1C)C2", "T. brucei": -18.78}
{"smiles": "COCc1nc2cc(NCc3ccc(C)o3)ccc2o1", "LiHisRS": 101.9, "T. brucei": 13.96, "MtTrpRS": 4.315}
{"smiles": "O=C(O)C(F)(F)F.O=C(O)C(F)(F)F.O=C(O)C(F)(F)F.[H][C@@]12COC[C@H](N3CCN(C)CC3)[C@]1([H])CN(Cc1ccc(OC)cc1)C2", "T. brucei": 0.09031}
{"smiles": "CCOC1COC2(CCN(S(=O)(=O)c3cccc(C)c3)CC2)C1", "stereo": "configuration not stated", "LiHisRS": 10.09, "T. brucei": 0.4202, "MtTrpRS": 3.591}
{"smiles": "Cc1cc(C)n(C2CCN(C(=O)c3cn4ccsc4n3)C2)n1", "stereo": "configuration not stated", "LiHisRS": 17.65, "T. brucei": -50.57, "MtTrpRS": 1.398}
{"smiles": "CN1C(=O)CC(c2ccccc2)C12CCN(CC1CC1)CC2.O=C(O)C(F)(F)F", "stereo": "configuration not stated", "T. brucei": 8.126}
{"smiles": "COc1ccc(Nc2c[nH]c(=O)[nH]c2=O)cc1", "LiHisRS": -19.1, "T. brucei": -59.98, "MtTrpRS": -2.994}
{"smiles": "CCn1cc(CNCC(c2ccc(Cl)cc2)n2cccn2)cn1", "stereo": "configuration not stated", "LiHisRS": 8.333, "MtTrpRS": -7.148}
{"smiles": "O=C(COCc1ccco1)Nc1cc(C(F)(F)F)c[nH]c1=O", "LiHisRS": 6.14, "T. brucei": -10.39, "MtTrpRS": -4.184}
{"smiles": "COCc1noc(-c2ccc(N(C)Cc3ncccc3C)nc2)n1", "LiHisRS": 2.4, "T. brucei": -21.11, "MtTrpRS": 3.261}
{"smiles": "O=C1CCC(=O)N1c1nn(Cc2c(F)cccc2Cl)cc1Cl", "LiHisRS": 14.43, "T. brucei": -7.407}
{"smiles": "CS(=O)(=O)CCN1CCN(c2ccc(Cl)cn2)CC1", "LiHisRS": 10.92, "T. brucei": -31.23, "MtTrpRS": 1.1}
{"smiles": "Fc1ccc(-c2cnc(CN3CCCC3Cn3cccn3)o2)cc1", "stereo": "configuration not stated", "LiHisRS": -5.618, "T. brucei": -19.83, "MtTrpRS": -6.373}
{"smiles": "O=C(O)CNc1cc(-c2nccnc2N2CCCC2)c2cc[nH]c2n1", "LiHisRS": 20.21, "T. brucei": -13.04, "MtTrpRS": 8.516}
{"smiles": "[H][C@@]12CCN(C(=O)c3cc(C)on3)C[C@@]1([H])O[C@H](c1nc(C)cs1)C2", "T. brucei": 32.68}
{"smiles": "CNC(=O)c1cc(C2CCCN2)n[nH]1", "stereo": "configuration not stated", "LiHisRS": 1.418, "MtTrpRS": -4.137}
{"smiles": "O=C(O)c1cccnc1CN(Cc1ccsc1)C1CC1", "LiHisRS": 7.692, "T. brucei": -3.323, "MtTrpRS": -1.21}
{"smiles": "COC(=O)CNC(=O)CSCc1nc(O)c2cc(C(C)C)sc2n1", "LiHisRS": 5.825, "T. brucei": -9.643, "MtTrpRS": -6.432}
{"smiles": "[H][C@]12CC[C@@]3(N=C(C)N(C)C3=O)[C@@]1([H])CN(C(=O)NCC(C)C)C2", "T. brucei": 5.415}
{"smiles": "O=C(O)C(F)(F)F.[H][C@@]12C[C@H](C(=O)N3CCN(C)CC3)[C@@]([H])(CN(S(=O)(=O)CC(C)C)C1)O2", "T. brucei": -51.72}
{"smiles": "CN(C)C(=O)c1cnc2n1CCN(Cc1ccsc1)C2.O=C(O)C(F)(F)F", "T. brucei": -251.8}
{"smiles": "[H][C@]12CN(C(=O)c3cnc(C)nc3)CC[C@@]1(O)CCN(C(=O)N(C)C)C2", "T. brucei": -26.85}
{"smiles": "COc1ccccc1C(=O)N1CCC(Nc2ccc(C)nn2)CC1", "LiHisRS": 13.04, "T. brucei": -13.44, "MtTrpRS": -3.45}
{"smiles": "CC1COCCN1C(=O)COc1ccc(Oc2ccccn2)cc1", "stereo": "configuration not stated", "LiHisRS": 19.57, "T. brucei": -9.778, "MtTrpRS": 3.859}

Repeated from the top, 2 entries:

{"smiles": "Cc1ncc(C(=O)N2CCC(N3C[C@@H](C)O[C@@H](C)C3)CC2)c(=O)[nH]1", "LiHisRS": 13.98, "T. brucei": -33.91, "MtTrpRS": 14.19}
{"smiles": "COc1ccc(C(=O)C2CCCN(CCCn3cccn3)C2)c(OC)c1", "stereo": "configuration not stated", "LiHisRS": 11.43, "T. brucei": -5.159, "MtTrpRS": 4.762}